Assay results taken from paper PMC8842248.
No constants are given. Whether binding was seen depends on the method and setting.

Sequences of proteins named here, by UniProt entry; tags and fusion partners are left off.
UniProt Q9H0U4: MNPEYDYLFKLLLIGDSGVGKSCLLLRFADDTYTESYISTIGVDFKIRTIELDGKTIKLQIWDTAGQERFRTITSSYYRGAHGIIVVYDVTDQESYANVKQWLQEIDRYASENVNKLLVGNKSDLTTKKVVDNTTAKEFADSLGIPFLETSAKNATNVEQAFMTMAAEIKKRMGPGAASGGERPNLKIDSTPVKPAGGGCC

Target: GST-RAB1B, nonprenylated (UniProt Q9H0U4)
Test: pull-down; 20 μg GST-RAB1B with 20 μg PDE6D on GST-resin, 20 mM Tris pH 7.5, 200 mM NaCl, 1 mM DTT, 5 mM MgCl2, room temperature 30 min, four washes, glutathione elution, western blot; both purified

Substance: PDE6D (phosphodiesterase 6 delta), wild type, polyhistidine tag removed (from UniProt O43924 1-150)
- binding: no binding (tested: 20 μg of GST-RAB1B with 20 μg of PDE6D)
